# No constants are given. Whether binding was seen depends on the method and setting.
# Molecular target: PrP^119 (residues 119-231 of human PrP) (human) (UniProt P04156)
# Test: AUC
substance,measurement,value
PrP^119 (residues 119-231 of human PrP) (from UniProt P04156 119-231) (domain or fragment),binding,no binding (tested: 15 – 135 μM)
